Our source for the binding values is publication PMC6912744.

Sequences of proteins named here, by UniProt entry; tags and fusion partners are left off.
UniProt Q6ZNE5: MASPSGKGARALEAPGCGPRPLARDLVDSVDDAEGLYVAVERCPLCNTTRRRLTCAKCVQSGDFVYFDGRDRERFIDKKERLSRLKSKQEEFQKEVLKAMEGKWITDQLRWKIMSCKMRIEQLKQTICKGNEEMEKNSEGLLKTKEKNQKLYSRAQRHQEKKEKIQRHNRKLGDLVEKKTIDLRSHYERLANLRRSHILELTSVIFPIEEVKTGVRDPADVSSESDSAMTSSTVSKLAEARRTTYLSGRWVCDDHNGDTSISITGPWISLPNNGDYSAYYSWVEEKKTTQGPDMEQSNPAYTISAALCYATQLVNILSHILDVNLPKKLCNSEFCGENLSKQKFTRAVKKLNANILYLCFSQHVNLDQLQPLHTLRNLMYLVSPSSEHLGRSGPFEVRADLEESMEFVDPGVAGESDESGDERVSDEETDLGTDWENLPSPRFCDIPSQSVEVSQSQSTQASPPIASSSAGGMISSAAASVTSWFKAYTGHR
UniProt P56962: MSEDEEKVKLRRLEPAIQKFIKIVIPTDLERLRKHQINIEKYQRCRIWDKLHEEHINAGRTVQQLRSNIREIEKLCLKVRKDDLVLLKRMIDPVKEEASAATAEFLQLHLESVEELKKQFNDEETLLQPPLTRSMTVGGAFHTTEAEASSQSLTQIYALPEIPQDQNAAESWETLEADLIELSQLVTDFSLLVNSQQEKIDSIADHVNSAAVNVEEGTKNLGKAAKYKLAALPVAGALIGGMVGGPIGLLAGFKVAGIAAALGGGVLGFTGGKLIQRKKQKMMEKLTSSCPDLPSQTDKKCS
UniProt O94817: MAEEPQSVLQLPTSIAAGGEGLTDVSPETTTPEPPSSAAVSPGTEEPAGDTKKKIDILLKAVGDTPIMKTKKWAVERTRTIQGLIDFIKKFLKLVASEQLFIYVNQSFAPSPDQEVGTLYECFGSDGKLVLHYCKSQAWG
UniProt Q14457: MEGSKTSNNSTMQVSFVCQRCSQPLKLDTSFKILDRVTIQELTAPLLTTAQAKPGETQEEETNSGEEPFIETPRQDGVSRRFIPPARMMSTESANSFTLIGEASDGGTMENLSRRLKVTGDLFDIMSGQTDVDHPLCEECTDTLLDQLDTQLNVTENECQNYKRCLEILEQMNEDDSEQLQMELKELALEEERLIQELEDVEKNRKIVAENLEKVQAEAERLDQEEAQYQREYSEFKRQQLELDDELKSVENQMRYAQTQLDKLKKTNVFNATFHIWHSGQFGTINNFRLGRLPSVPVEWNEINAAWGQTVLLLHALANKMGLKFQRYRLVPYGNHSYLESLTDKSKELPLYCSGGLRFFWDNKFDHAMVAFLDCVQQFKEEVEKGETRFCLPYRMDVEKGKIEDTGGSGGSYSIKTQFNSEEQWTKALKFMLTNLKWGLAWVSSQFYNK

In experiment [1] the target is T1, B-cell receptor associated protein 31 (BAP31) (human (endogenous in U2OS and normal human fibroblasts)) (UniProt P51572).
T1 sequence: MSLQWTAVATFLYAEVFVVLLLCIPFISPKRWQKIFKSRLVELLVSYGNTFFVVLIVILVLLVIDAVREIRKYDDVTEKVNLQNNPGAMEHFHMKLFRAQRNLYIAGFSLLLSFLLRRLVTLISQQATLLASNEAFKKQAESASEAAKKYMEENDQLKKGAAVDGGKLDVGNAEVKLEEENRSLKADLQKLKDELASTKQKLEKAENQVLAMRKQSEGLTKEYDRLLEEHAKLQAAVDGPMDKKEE
The experiment is described as follows: co-IP; endogenous proteins of normal human fibroblast cells (Figure S6).

Experiment [2] has as its target T1, B-cell receptor associated protein 31 (BAP31) (human (endogenous in U2OS and normal human fibroblasts)). The experiment can be described thus: proximity ligation; DuoLink in fixed U2OS cells with antibodies to BAP31 and STX17; with or without BFA (1 µg/mL, 12 h); confocal imaging.
Experiment [3] deals with autophagy related protein 14L (ATG14L) (human (endogenous in U2OS)) (UniProt Q6ZNE5). The experiment is described as follows: proximity ligation; DuoLink in fixed U2OS cells, endogenous STX17 and ATG14L; siControl or siBAP31 (24 h), with or without BFA (1 µg/mL, 8 h); confocal imaging.
Experiment [4] concerns the target HA-ATG14L (UniProt Q6ZNE5). The experiment is described as follows: condition: only normal conditions (no BAP31 knockdown, ER stress or starvation); co-IP; U2OS cells transfected with HA-ATG14L; normal conditions (siControl, no BFA, no starvation); cell lysates, western blotting.
The target of experiment [5] is T1, B-cell receptor associated protein 31 (BAP31) (human (endogenous in U2OS and normal human fibroblasts)). The experiment can be described thus: co-IP; endogenous proteins of U2OS cells; cells cross-linked with 1 mM DSP before lysis; antibody covalently immobilised on protein A/G plus-agarose; western blotting; also with or without BFA (1 µg/mL, 12 h).
The target in experiment [6] is HA-ATG14L (UniProt Q6ZNE5). The experiment is described as follows: co-IP; U2OS cells transfected with HA-ATG14L; siBAP31 (24 h), BFA (1 µg/mL, 8 h) or starvation; cell lysates, western blotting.

These are yes or no findings as the source states them, for the method shown. Binding seen in cells or lysates may run through a third protein. Some entries that bind do so weakly or less than the wild type.

Turning to “syntaxin 17 (STX17) (from UniProt P56962 1-302)”, the binding entry is listed as “binds” in experiment [1]; “binds” in experiment [2]; “binds” in experiment [3]; “no binding” with HA-ATG14L [4]; “binds” in experiment [5]; “binds” in the experiment with HA-ATG14L [6].
Consider “autophagy related protein 14L (ATG14L) (from UniProt Q6ZNE5 1-492)”, for which the binding entry in experiment [5] is on record as “no binding”.
With ATG12 (from UniProt O94817 1-140), in experiment [5], the binding entry is recorded as “no binding”.
Take Beclin1 (from UniProt Q14457 1-450): in experiment [5], the binding entry is given as “no binding”.
